Data: the supplement of paper PMC10849652
The other results are listed elsewhere or left out. Residues, ends and D or L forms follow the SMILES beside them. *: point of attachment. Cbz = O=C(OCc1ccccc1)*

The chains behind the UniProt entries cited, without tags or fusion partners. Where a name states a change or a piece, a line headed by the entry shows the natural chain unless it says otherwise.
UniProt P0C869: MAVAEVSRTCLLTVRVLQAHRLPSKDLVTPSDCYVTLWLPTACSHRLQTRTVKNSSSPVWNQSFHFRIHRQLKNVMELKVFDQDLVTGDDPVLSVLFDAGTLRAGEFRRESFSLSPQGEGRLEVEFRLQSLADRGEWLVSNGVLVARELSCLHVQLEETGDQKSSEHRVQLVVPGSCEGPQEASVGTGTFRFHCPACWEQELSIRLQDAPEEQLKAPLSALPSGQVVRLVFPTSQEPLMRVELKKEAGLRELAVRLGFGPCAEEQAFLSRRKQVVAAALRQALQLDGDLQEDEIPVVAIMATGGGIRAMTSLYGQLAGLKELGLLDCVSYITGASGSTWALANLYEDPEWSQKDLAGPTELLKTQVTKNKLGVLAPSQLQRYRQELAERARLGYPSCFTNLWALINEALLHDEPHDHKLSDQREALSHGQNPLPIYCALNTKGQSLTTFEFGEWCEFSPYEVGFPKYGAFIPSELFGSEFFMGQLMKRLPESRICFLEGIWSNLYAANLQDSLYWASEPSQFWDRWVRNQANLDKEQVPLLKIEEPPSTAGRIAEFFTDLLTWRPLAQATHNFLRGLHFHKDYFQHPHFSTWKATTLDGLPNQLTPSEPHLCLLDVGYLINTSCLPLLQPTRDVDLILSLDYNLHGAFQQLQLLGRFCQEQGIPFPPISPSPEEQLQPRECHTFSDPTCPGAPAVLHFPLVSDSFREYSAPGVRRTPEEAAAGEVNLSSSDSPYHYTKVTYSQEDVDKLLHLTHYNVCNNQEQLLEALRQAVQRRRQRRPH
UniProt Q8WUB8: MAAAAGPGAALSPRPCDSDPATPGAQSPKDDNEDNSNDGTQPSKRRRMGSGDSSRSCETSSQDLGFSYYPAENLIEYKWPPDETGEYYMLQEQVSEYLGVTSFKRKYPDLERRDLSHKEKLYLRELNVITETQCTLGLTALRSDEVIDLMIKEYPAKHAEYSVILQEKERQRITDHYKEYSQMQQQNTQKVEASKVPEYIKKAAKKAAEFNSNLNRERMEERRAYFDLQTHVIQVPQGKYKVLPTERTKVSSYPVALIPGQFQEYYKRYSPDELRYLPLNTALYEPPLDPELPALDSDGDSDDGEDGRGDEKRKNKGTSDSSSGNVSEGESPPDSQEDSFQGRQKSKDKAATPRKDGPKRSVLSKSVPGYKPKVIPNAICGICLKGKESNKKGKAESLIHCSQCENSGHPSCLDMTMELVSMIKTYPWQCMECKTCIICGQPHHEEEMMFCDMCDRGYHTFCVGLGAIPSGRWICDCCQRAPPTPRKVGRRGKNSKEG
UniProt Q8N2W9: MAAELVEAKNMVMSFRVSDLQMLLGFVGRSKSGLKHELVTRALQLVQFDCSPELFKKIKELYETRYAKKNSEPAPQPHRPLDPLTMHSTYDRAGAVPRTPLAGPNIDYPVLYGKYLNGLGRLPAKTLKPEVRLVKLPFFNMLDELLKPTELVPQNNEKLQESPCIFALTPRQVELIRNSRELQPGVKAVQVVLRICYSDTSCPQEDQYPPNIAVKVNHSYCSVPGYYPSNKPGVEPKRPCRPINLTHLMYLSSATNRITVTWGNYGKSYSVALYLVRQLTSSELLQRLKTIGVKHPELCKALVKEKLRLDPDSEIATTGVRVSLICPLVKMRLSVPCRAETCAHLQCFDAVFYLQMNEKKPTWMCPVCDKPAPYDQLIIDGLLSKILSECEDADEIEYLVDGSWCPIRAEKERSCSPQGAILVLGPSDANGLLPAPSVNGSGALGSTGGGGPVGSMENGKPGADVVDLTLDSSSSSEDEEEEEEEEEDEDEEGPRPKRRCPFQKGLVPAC
UniProt Q9Y446: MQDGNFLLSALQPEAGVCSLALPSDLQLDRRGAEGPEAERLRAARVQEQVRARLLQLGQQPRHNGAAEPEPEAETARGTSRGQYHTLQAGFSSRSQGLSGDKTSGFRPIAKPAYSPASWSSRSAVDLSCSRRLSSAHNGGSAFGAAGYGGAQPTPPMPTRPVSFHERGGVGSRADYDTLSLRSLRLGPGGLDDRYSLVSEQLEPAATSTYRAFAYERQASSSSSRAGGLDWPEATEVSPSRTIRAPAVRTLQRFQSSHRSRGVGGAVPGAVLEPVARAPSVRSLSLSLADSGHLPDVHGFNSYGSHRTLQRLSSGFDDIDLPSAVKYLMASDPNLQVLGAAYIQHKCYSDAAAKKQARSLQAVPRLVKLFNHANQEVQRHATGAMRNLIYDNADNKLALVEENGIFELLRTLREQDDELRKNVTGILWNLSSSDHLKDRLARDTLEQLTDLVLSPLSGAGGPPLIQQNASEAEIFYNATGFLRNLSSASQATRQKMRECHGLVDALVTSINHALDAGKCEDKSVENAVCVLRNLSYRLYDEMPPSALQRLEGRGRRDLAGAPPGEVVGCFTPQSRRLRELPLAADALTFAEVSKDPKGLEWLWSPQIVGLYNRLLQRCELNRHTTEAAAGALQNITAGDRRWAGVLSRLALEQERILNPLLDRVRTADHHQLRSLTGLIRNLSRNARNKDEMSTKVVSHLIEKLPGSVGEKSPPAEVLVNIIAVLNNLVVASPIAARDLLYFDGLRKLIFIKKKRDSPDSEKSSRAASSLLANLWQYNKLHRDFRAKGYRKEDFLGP
UniProt Q8NDX5: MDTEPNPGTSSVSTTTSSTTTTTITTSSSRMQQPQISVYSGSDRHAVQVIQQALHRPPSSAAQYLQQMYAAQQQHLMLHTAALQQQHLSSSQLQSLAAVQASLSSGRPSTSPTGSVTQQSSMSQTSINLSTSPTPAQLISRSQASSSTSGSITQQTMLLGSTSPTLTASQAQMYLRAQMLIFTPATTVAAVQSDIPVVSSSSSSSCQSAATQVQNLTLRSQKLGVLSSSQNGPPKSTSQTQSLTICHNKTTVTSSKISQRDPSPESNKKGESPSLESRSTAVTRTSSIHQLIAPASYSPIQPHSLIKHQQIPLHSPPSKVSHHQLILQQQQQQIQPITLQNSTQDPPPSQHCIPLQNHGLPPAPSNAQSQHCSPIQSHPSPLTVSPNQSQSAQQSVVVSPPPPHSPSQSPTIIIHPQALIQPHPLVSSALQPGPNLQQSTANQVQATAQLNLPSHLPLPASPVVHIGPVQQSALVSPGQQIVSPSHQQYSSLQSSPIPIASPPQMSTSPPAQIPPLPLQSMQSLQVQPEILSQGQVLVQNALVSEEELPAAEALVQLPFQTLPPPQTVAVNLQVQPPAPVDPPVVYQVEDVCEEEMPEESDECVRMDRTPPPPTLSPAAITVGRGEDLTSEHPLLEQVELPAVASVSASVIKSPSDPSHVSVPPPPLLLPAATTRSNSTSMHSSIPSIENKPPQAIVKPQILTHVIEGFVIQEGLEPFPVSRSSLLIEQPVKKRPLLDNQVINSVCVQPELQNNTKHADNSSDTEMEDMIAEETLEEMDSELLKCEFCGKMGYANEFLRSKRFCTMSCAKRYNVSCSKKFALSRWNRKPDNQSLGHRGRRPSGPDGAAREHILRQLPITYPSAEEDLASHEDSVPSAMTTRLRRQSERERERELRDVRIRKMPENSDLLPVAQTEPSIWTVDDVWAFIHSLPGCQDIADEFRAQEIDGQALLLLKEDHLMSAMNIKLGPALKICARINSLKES
UniProt Q99755: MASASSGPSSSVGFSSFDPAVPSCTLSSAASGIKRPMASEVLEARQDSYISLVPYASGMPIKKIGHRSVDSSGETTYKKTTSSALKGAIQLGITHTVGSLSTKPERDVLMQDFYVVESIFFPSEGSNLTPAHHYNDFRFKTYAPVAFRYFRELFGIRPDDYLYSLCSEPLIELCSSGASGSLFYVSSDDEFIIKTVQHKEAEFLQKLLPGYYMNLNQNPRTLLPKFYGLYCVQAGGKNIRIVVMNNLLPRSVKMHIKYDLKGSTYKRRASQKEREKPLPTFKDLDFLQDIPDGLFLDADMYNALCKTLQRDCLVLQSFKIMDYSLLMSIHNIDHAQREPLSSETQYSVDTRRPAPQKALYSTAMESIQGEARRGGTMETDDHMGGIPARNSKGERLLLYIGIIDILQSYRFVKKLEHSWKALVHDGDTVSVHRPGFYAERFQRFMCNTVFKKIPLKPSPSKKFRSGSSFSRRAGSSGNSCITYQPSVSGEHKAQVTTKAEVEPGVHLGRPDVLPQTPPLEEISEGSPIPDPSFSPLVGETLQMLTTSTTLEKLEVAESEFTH
UniProt P56589: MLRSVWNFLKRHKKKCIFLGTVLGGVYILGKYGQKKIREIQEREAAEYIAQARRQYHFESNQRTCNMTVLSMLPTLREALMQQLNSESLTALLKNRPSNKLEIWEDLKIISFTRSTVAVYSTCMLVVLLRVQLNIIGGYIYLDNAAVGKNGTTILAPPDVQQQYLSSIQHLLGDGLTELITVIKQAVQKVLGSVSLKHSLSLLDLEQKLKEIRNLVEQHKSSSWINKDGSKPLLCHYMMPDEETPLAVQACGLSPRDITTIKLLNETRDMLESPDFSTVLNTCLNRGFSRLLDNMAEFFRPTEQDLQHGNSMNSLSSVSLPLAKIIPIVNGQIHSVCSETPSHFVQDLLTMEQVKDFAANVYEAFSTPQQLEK
UniProt P08567: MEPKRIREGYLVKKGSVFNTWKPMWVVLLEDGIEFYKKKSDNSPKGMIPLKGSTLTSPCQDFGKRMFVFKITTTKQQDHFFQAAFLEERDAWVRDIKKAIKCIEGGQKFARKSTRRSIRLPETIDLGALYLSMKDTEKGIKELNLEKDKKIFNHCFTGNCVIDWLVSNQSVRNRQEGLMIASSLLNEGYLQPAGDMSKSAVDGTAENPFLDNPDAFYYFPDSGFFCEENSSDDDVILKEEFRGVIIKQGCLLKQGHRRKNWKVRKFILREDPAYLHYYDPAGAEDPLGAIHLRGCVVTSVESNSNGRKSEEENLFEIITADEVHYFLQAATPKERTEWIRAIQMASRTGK
UniProt P14618, whole entry, looked up: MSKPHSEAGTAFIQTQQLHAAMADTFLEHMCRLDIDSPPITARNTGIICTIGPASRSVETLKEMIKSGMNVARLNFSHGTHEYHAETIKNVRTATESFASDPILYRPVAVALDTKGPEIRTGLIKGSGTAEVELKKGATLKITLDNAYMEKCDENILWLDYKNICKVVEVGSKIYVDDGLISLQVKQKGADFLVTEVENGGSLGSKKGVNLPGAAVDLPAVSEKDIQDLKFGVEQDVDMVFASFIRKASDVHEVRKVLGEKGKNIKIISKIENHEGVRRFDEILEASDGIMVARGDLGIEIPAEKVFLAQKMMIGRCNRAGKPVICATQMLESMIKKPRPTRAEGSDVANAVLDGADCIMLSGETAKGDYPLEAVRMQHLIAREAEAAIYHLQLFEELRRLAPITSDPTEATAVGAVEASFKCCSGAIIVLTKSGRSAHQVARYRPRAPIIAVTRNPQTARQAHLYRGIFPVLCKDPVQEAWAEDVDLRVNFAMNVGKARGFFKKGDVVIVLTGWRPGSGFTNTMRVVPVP
UniProt Q8IXK0: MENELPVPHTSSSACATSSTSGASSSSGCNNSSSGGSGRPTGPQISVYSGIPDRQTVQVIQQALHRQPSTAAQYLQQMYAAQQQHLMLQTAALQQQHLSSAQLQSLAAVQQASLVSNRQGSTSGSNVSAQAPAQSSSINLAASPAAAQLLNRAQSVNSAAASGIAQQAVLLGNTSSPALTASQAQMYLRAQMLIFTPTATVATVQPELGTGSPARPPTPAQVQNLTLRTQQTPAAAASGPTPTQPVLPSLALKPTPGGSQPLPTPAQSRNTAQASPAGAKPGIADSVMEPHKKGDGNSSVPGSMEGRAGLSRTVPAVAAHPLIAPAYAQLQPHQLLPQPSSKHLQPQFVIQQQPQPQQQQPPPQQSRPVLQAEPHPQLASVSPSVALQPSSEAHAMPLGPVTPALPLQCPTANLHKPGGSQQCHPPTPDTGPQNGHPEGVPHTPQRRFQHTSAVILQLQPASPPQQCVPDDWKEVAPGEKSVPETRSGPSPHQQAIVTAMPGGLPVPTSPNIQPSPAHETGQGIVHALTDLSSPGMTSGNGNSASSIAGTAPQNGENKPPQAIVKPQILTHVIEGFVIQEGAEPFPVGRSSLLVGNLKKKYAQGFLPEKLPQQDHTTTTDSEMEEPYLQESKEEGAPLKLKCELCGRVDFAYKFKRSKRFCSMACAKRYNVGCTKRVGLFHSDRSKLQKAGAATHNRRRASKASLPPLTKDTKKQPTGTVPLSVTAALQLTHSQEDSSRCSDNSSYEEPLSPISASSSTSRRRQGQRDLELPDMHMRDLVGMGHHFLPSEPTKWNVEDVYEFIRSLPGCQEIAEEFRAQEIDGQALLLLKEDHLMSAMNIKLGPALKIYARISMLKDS

Assays:
Assay in all cases: log2 fold change, soluble protein after heating vs DMSO (PISA); higher = thermal stabilisation; K562 cells, 10 uM, 30 min; active = over 0.2 and 3.5 SD of the protein, either way, in both replicates (recomputed)
[1] = compound: C1COCCN1CCN2C3=CC=CC=C3N=C2NC(=O)C4=CC(=CC=C4)[N+](=O)[O-] [IRAK-1-4 Inhibitor I]
Procedure, shortened: (§1)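 K562 cells (2×10^6 cells/mL) were treated with 10 μM compound for 30 min, and aliquots were heated for 3 min over 48°C-58°C. Pooled aliquots were extracted in PBS with 0.5% NP-40 at 4°C, and the supernatant after 21,000xg for 90 min was measured by TMTpro 16plex LC-MS/MS with channel sums equalised. Reported thermal stability, relative to control samples and from duplicates, is a log2 fold change.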

[2] = compound: C=CC(=O)N1CCC[C@@H](n2nc(-c3ccc(Oc4ccccc4)cc3)c3c(N)ncnc32)C1 [ibrutinib]
Procedure, shortened: as §1

[3] = compound: CC(=O)c1cnc2ccc(-c3cc(Cl)c(O)c(Cl)c3)nc2c1N[C@H]1CC[C@H](CN(C)C)CC1
Procedure, shortened: as §1

[4] = compound: CC(C)(C)Cn1c(N)nc2ccc(-c3[nH]c(C(C)(C)C)nc3-c3ccc(F)cc3)nc21 [ralimetinib]
Procedure, shortened: as §1

[5] = compound: CC(C)C[C@@H](C=O)NC(=O)[C@H](CC(C)C)NC(=O)[C@H](CC(C)C)NC(=O)OCc1ccccc1
Procedure, shortened: as §1

[6] = compound: CC(C)N(C[C@H]1O[C@@H](n2cnc3c(N)ncnc32)[C@H](O)[C@@H]1O)[C@H]1C[C@@H](CCc2nc3cc(C(C)(C)C)ccc3[nH]2)C1 [pinometostat]
Procedure, shortened: as §1

[7] = compound: CC1=C(C(CC(=O)N1)C2=CC=C(C=C2)C(F)(F)F)C(=O)NC3=C(C=C4C(=C3)C=NN4)F
Procedure, shortened: as §1

[8] = compound: CC1=C(C2=C(C=C1)C(=O)C3=CC=CC=C3N2CCCN)C
Procedure, shortened: as §1

[9] = compound: CC1=C(C=C(C=C1)NC(=O)C2=CC(=CC=C2)C(C)(C)C#N)NC3=CC4=C(C=C3)N=CN(C4=O)C
Procedure, shortened: as §1

[10] = compound: CC1=C(C=C(C=C1)NC(=O)C2=CC(=CC=C2)N(C)C)NC(=O)C3=CC=C(C=C3)O
Procedure, shortened: as §1

[11] = compound: CC1=CC=C(C=C1)SC2=C3C=C(SC3=CN=C2)C(=O)N
Procedure, shortened: as §1

[12] = compound: CC1=NC(=CC=C1)C2=C(N=C(N2)C(C)(C)C)C3=CC4=NC=CN=C4C=C3
Procedure, shortened: as §1

[13] = compound: CCCS(=O)(=O)Nc1ccc(F)c(C(=O)c2c[nH]c3ncc(-c4ccc(Cl)cc4)cc23)c1F [vemurafenib]
Procedure, shortened: as §1

[14] = compound: CCCS(=O)(=O)Nc1ccc(F)c(C(=O)c2c[nH]c3ncc(Cl)cc23)c1F
Procedure, shortened: as §1

[15] = compound: CCCc1cc(C)[nH]c(=O)c1CNC(=O)c1cc(-c2ccnc(N3CCN(C)CC3)c2)cc2c1cnn2C(C)C
Procedure, shortened: as §1

[16] = compound: CCN(CCCOc1ccc2c(Nc3cc(CC(=O)Nc4cccc(F)c4)[nH]n3)ncnc2c1)CCOP(=O)(O)O [barasertib]
Procedure, shortened: as §1

[17] = compound: CC(C)(O)CC(=O)NCCn1ccc2ncnc(Nc3ccc(Oc4cccc(C(F)(F)F)c4)c(Cl)c3)c21
Procedure, shortened: as §1

[18] = compound: CC(C)C1=C2N=C(C=C(N2N=C1)NCC3=CC=CC=C3)NCCCCCCN
Procedure, shortened: as §1

[19] = compound: CCCCN(Cc1ccc(C(=O)NO)cc1)C(=O)Nc1ccccc1 [Nexturastat A]
Procedure, shortened: as §1

[20] = compound: CCN(CC)Cc1ccc2cc(COC(=O)Nc3ccc(C(=O)NO)cc3)ccc2c1 [givinostat]
Procedure, shortened: as §1

Measured: log2 fold change

PLA2G4B isoform 6 (UniProt P0C869)
inactive: [1] -0.078 | [2] -0.09 | [3] 0 | [4] 0.155 | [5] 0.02 | [6] 0.004 | [7] -0.103 | [8] 0.126 | [9] 0.136 | [10] 0.019 | [11] -0.021 | [12] -0.021 | [13] 0.027 | [14] 0.086 | [15] -0.092 | [16] 0.039

PHF10 (UniProt Q8WUB8)
inactive: [1] -0.011 | [2] -0.199 | [3] -0.096 | [4] 0.012 | [17] 0.169 | [18] -0.163 | [5] -0.016 | [6] 0.026 | [8] -0.083 | [9] 0.072 | [10] 0.045 | [11] -0.047 | [12] -0.099 | [19] 0.179 | [13] 0.01 | [14] 0.035 | [20] 0 | [16] -0.042

PIAS4 (UniProt Q8N2W9)
active: [17] -0.781
inactive: [1] -0.111 | [4] -0.005 | [5] 0.035 | [6] 0.037 | [8] -0.275 | [10] -0.137 | [11] -0.101 | [12] 0.222 | [19] 0.353 | [14] 0.07 | [15] 1.31

PKP3 isoform 2 (UniProt Q9Y446)
inactive: [1] -0.059 | [2] -0.006 | [3] -0.33 | [4] 0.09 | [17] 0.016 | [5] 0.1 | [6] 0.213 | [8] 0.32 | [9] -0.026 | [10] -0.031 | [11] 0.045 | [12] -0.057 | [19] 0.489 | [13] 0.075 | [14] -0.004 | [15] 0.176 | [16] 0.092

PFKM (UniProt F8VTQ3)
inactive: [1] 0.009 | [2] 0 | [6] -0.055 | [11] -0.406 | [12] 0.027 | [14] -0.45 | [16] -0.051

PHC3 isoform 7 (UniProt Q8NDX5)
inactive: [1] -0.377 | [2] -0.159 | [17] -0.25 | [18] -0.219 | [6] -0.11 | [9] 0.102 | [11] 0.088 | [12] 0.266 | [19] -0.43 | [14] 0.096 | [15] 0.116 | [20] 0.17 | [16] 0

PIP5K1A (UniProt Q99755)
inactive: [1] -0.082 | [2] 0.068 | [3] 0.262 | [4] 0.045 | [17] -0.016 | [5] 0.081 | [6] 0.197 | [7] 0.185 | [8] -0.063 | [9] -0.157 | [10] 0.154 | [11] -0.083 | [12] -0.152 | [19] 0.122 | [13] -0.04 | [14] 0.007 | [15] -0.06 | [16] 0.127

Reprinted from above (2 entries):
PKP3 isoform 2 (UniProt Q9Y446)
inactive: [1] -0.059 | [2] -0.006 | [3] -0.33 | [4] 0.09 | [17] 0.016 | [5] 0.1 | [6] 0.213 | [8] 0.32 | [9] -0.026 | [10] -0.031 | [11] 0.045 | [12] -0.057 | [19] 0.489 | [13] 0.075 | [14] -0.004 | [15] 0.176 | [16] 0.092

PFKM (UniProt F8VTQ3)
inactive: [1] 0.009 | [2] 0 | [6] -0.055 | [11] -0.406 | [12] 0.027 | [14] -0.45 | [16] -0.051

The results go on:

PEX3 (UniProt P56589)
inactive: [1] 0.059 | [3] -0.054 | [4] -0.137 | [17] -0.091 | [18] 0.019 | [5] 0.073 | [6] 0.011 | [7] 0.047 | [8] -0.076 | [9] 0.035 | [10] -0.088 | [11] -0.052 | [12] 0.029 | [19] 0.209 | [13] -0.042 | [14] 0.005 | [15] 0.017 | [20] 0.101

PLEK (UniProt P08567)
inactive: [1] -0.187 | [4] -0.114 | [18] 0.09 | [5] 0.057 | [6] -0.087 | [10] -0.03 | [11] 0.273 | [12] -0.047 | [13] 0.125 | [14] -0.057 | [20] -0.051

PKM (UniProt P14618)
inactive: [1] 0.012 | [3] -0.011 | [4] -0.018 | [17] -0.02 | [18] 0.079 | [5] -0.013 | [6] -0.033 | [8] 0.036 | [9] -0.013 | [10] -0.005 | [11] 0.001 | [12] 0.014 | [19] -0.054 | [13] -0.012 | [14] -0.01 | [15] -0.023 | [20] 0 | [16] -0.011

PGD (UniProt K7EM49)
inactive: [1] 0.039 | [2] 0.029 | [4] -0.156 | [17] -0.008 | [5] 0.174 | [6] 0.081 | [10] 0.141 | [11] -0.203 | [12] -0.132 | [19] 0.306 | [13] -0.028 | [14] -0.102 | [16] -0.004

PHC2 isoform 5 (UniProt Q8IXK0)
inactive: [1] -0.028 | [2] -0.05 | [4] -0.029 | [17] 0.12 | [5] 0.075 | [6] 0.1 | [9] 0.046 | [10] 0.133 | [12] -0.013 | [19] 0.052 | [13] 0.155 | [15] -0.116 | [16] -0.517
